PubChem BioAssay AID1259308, NCATS | 2017
In all, the deposit lists about 59,000 reagents; below is a part drawn at random. About 1,510 of them (2.6%) were called active. 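Calls use total luciferase alone and ignore viability, so some active siRNAs may act by altering cell number.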 Entries without a mark were called inactive. Reagents against one gene are numbered here. Not all columns of the deposit are shown. No sequences are given here.

- Aim: 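Genes whose loss raises luciferase production in HEK293 cells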 (primary screen)
- Cell system: human HEK293 embryonic kidney cells stably expressing firefly luciferase (HEK-CMV-Luc2-Hygro)
- Reagent: single siRNA against human genes, 0.8 pmol siRNA per well
- Timing: 72 h
- Detection: 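Luciferase light (ONE-Glo) measured on one replicate plate set and viability (CellTiter-Glo) on the other, scaled to a negative control siRNA, with robust z-scores and luciferase per cell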
- Reading the numbers: total luciferase, z-score: higher = more reporter protein produced
- Rule for the call: 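Active when the median/MAD z-score for overall luciferase is greater than 3; a gene was taken forward for validation with new siRNAs if at least two of its three siRNAs passed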
- Meaning of the calls: active = raised luciferase; inactive = no rise

| Gene | siRNA no. | total luciferase, z-score |
| --- | --- | --- |
| TBC1D7 | 1 | 0.586 |
| TBC1D7 | 2 | -1.07 |
| TBC1D7 | 3 | 0.783 |
| NPC1 | 1 | -1.17 |
| NPC1 | 2 | 0.45 |
| NPC1 | 3 | 0.506 |
| POGK | 1 | -1.53 |
| POGK | 2 | 0.416 |
| POGK | 3 | -0.0458 |
| ARHGAP40 | 1 | 1.26 |
| ARHGAP40 | 2 | 1.26 |
| ARHGAP40 | 3 | -0.362 |
| HSF5 | 1 | -0.342 |
| HSF5 | 2 | -1.32 |
| HSF5 | 3 | 0.0568 |
| VASH1 | 1 | -0.489 |
| VASH1 | 2 | 0.0194 |
| VASH1 | 3 | 0.933 |
| FAM47B | 1 | 0.225 |
| FAM47B | 2 | 0.307 |
| FAM47B | 3 | -0.747 |
| APIP | 1 | -0.8 |
| APIP | 2 | -0.14 |
| APIP | 3 | -1.22 |
| ACLY | 1 | -0.947 |
| ACLY | 2 | -0.516 |
| ACLY | 3 | -0.935 |
| MB | 1 | 0.219 |
| MB | 2 | 1.35 |
| MB | 3 | -0.0597 |
| TMEM254 | 1 | 0.207 |
| TMEM254 | 2 | -0.158 |
| TMEM254 | 3 | -0.159 |
| CDH6 | 1 | 0.796 |
| CDH6 | 2 | -0.46 |
| CDH6 | 3 | -0.287 |
| EIF4H | 1 | 0.453 |
| EIF4H | 2 | -0.263 |
| EIF4H | 3 | -1.59 |
| TRAPPC10 | 1 | 0.234 |
| TRAPPC10 | 2 | -0.496 |
| TRAPPC10 | 3 | -1.39 |
| ZCCHC17 | 1 | 0.226 |
| ZCCHC17 | 2 | -1.7 |
| ZCCHC17 | 3 | 2.23 |
| IGBP1 | 1 | -0.39 |
| IGBP1 | 2 | -0.321 |
| IGBP1 | 3 | -0.754 |
| PPP4R3A | 1 | 3.98 (active) |
| PPP4R3A | 2 | -0.0388 |
| PPP4R3A | 3 | -0.0641 |
| TBC1D9 | 1 | 2.26 |
| TBC1D9 | 2 | 1.26 |
| TBC1D9 | 3 | 0.554 |
| FRYL | 1 | 1.03 |
| FRYL | 2 | -0.549 |
| FRYL | 3 | -0.226 |
| FRYL | 4 | 1.51 |
| FRYL | 5 | -0.364 |
| FRYL | 6 | 0.612 |
| RAB5C | 1 | 0.536 |
| RAB5C | 2 | 1.01 |
| RAB5C | 3 | -1.07 |
| RCAN3 | 1 | 0.869 |
| RCAN3 | 2 | -1.09 |
| RCAN3 | 3 | 1.52 |
| PTGIR | 1 | 1.22 |
| PTGIR | 2 | 0.345 |
| PTGIR | 3 | 0.901 |
| PPM1B | 1 | 1.99 |
| PPM1B | 2 | 0.735 |
| PPM1B | 3 | 0.384 |
| SP140L | 1 | 1.82 |
| SP140L | 2 | 0.14 |
| SP140L | 3 | -1.06 |

In a second layout: entries from further up.
{"Gene": "RCAN3", "siRNA no.": 3, "total luciferase, z-score": 1.52}
{"Gene": "PTGIR", "siRNA no.": 1, "total luciferase, z-score": 1.22}
{"Gene": "PTGIR", "siRNA no.": 2, "total luciferase, z-score": 0.345}
{"Gene": "PTGIR", "siRNA no.": 3, "total luciferase, z-score": 0.901}
{"Gene": "PPM1B", "siRNA no.": 1, "total luciferase, z-score": 1.99}
{"Gene": "PPM1B", "siRNA no.": 2, "total luciferase, z-score": 0.735}
{"Gene": "PPM1B", "siRNA no.": 3, "total luciferase, z-score": 0.384}
